From publication PMC4813707
Results are given in words; binding and its absence hold for the method and conditions named. In cells and extracts the contact can be indirect. Some entries that bind do so weakly or less than the wild type.

Sequences of proteins named here, by UniProt entry; tags and fusion partners are left off.
UniProt Q9R190: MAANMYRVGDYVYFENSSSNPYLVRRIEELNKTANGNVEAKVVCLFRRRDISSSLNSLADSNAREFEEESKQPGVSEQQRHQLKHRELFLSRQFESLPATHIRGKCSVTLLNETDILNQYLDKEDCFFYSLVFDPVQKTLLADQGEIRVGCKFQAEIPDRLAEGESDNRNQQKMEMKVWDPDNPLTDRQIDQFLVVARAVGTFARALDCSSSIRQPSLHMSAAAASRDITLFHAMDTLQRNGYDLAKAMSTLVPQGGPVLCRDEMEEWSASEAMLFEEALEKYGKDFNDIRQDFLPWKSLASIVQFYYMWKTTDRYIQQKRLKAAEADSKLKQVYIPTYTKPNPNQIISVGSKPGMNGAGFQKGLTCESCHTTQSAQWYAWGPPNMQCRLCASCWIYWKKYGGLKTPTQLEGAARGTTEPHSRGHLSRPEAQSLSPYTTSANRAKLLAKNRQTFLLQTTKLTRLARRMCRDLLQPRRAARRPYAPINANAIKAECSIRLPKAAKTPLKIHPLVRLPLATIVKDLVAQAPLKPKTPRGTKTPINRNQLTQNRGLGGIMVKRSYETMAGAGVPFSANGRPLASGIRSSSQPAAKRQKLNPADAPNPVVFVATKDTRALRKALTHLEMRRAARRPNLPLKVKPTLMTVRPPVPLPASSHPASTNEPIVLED
UniProt P70288: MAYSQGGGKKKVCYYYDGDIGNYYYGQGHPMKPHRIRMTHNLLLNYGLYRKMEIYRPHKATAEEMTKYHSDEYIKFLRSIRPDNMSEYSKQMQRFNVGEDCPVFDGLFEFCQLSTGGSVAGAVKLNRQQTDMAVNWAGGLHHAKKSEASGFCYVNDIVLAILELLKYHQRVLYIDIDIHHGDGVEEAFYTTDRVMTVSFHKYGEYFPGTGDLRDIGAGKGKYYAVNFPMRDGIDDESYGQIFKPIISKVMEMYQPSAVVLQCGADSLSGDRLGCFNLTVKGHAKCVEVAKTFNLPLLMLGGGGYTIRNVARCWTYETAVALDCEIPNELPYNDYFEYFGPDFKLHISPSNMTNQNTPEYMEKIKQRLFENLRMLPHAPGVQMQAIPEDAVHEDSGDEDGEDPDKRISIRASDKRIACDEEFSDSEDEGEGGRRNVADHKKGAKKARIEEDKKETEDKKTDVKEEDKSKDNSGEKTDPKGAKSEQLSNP

Target: Mta2-FTAP (mouse) (UniProt Q9R190)
Test: co-IP; Mta2-FTAP immunoprecipitated with anti-FLAG antibody from whole cell lysates (first step of the serial IP); Western blotting

binding: binds
Substance: Hdac2 (from UniProt P70288 1-488) (enzyme)
